Record: PubChem BioAssay AID686943 (Drosophila RNAi Screening Center, 2013)

Aim: 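Knockdowns that increase or decrease active ERK after insulin receptor stimulation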 (primary screen)
Cell system: Drosophila S2R+ haemocyte-like cells expressing YFP-tagged ERK (Rolled)
Reagents: long dsRNA against Drosophila genes
Treatment: insulin stimulation versus unstimulated cells; dose and duration not given
Measurement: 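Antibody staining for doubly phosphorylated ERK divided by ERK-YFP signal, as plate z-scores, in insulin-treated and untreated cells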
Scale: replicate 1, z-score of dpERK with insulin and replicate 2, z-score of dpERK with insulin: higher = more active ERK per ERK-YFP after insulin; replicate 1, z-score of dpERK under basal conditions: higher = more basal active ERK per ERK-YFP; replicate 1, z-score of ERK-YFP with insulin: higher = more YFP-tagged ERK signal
In all, the deposit lists about 23,000 reagents; below is a random part of those with a known target gene and a result. 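Extra replicates exist only for a retested subset of genes; insulin dose and duration not given; both raised and lowered dpERK matter.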 Not stated in the record: the amount of reagent, the time to read-out.

"replicate 1, z-score of dpERK with insulin","replicate 2, z-score of dpERK with insulin","replicate 1, z-score of dpERK under basal conditions","replicate 1, z-score of ERK-YFP with insulin",predicted target,DRSC id
-1.36,-3.98,-1.8,-4.91,CG32432,DRSC11703
0.05,-2.18,-0.96,-0.78,CG32432,DRSC11704
-0.38,0.41,1.28,0.31,CG32432,DRSC11744
-0.09,-0.16,-0.27,-0.63,CG31176,DRSC15038
-0.26,0.11,-0.3,-0.4,CG31176,DRSC16021
0.38,0.06,0.64,0.72,CG18404,DRSC15323
5.72,-1.21,-0.62,2.46,mRpL32 (mitochondrial ribosomal protein L32),DRSC14479
1,-1.92,-0.54,0.09,CG43307,DRSC00893
-0.26,0.6,-0.18,0.01,Atg14 (Autophagy-related 14),DRSC14421
0.26,0.38,0.06,-2.11,CG10151,DRSC05974
0,-0.49,-0.33,0.44,CG3156,DRSC18503
0.65,0.3,1.55,0.38,CG43103,DRSC05643
-2.75,-3.31,-0.45,-0.04,Pp4-19C (Protein phosphatase 19C),DRSC20559
-2.79,-4.31,-1.59,0.56,Pp4-19C (Protein phosphatase 19C),DRSC21251
-0.14,-0.09,-0.06,0.14,CG15515,DRSC15054
-1.51,-0.33,-0.67,-0.52,CG3491,DRSC01934
1.05,-0.37,-0.3,-0.13,mas (masquerade),DRSC08720
1,0.33,0.01,-0.16,CG5321,DRSC19940
0.47,0.27,-0.68,1.4,CG5321,DRSC22802
0.09,1.24,-0.32,0.34,MP1 (Melanization Protease 1),DRSC12124
1.45,0.58,0.08,-0.4,PolA1 (DNA polymerase alpha subunit 1),DRSC16640
0.04,0.03,0.28,-0.36,CG3630,DRSC18499
-1.55,-1.02,-0.16,-0.35,CG15431,DRSC00446
0.75,0.14,0.02,-0.37,Ero1L (Endoplasmic reticulum oxidoreductin-1-like),DRSC08660
-0.41,0.12,0.6,0.2,lost,DRSC12002
-0.29,1.98,-1.2,0.63,lost,DRSC12234
-0.24,0.59,-0.93,-0.63,lost,DRSC21987
0.1,0.85,-1.57,-2.27,Sse (Separase),DRSC09746
0.86,0.5,-0.32,-0.43,CG9926,DRSC16582
-0.2,0.53,1.5,-0.1,CG14369,DRSC14831
-1.33,-1.43,-0.61,0.42,Or59b (Odorant receptor 59b),DRSC04632
-1.26,-0.52,-0.27,-0.86,CG14658,DRSC12244
1.61,0.32,1.19,-0.01,CG14778,DRSC17953
0.47,0.59,-0.08,0.5,CG10657,DRSC09768
-0.72,0.03,0.95,-1.76,CG1275,DRSC08294
0.67,0.18,-0.14,-0.16,CG42296,DRSC00394
-0.43,0.15,0.17,1.19,GrlHz (Gustatory receptor-like Holozoa),DRSC04424
-0.05,-0.06,-0.56,0.32,CG6652,DRSC10686
-0.46,-0.11,-0.21,0.52,CG42402,DRSC21116
0.84,0.85,1.14,-0.18,CG13227,DRSC06347
-0.08,-0.03,0.11,0.92,Cad99C (Cadherin 99C),DRSC15050
0.01,-0.41,-0.75,0.52,Cad99C (Cadherin 99C),DRSC16317
0.96,-0.15,-0.91,0.6,Ubc4 (Ubiquitin conjugating enzyme 4),DRSC11312
0.68,0.54,-0.82,0.09,beat-IIa (beaten path IIa),DRSC14813
0.78,-1.63,0.4,-0.66,beat-IIa (beaten path IIa),DRSC14814
0.58,-0.57,0.12,-0.03,Dhod (Dihydroorotate dehydrogenase),DRSC16647
-0.31,-0.26,0.45,-0.17,Ttc19 (Tetratricopeptide repeat domain 19),DRSC02474
1.08,-0.9,-0.53,-0.17,Rm62,DRSC12365
0.38,-0.09,-0.42,-0.07,dpa (disc proliferation abnormal),DRSC07604
0.59,-0.09,-0.2,-0.28,CG42747,DRSC10209
0.29,0.03,0.14,0.05,CG42747,DRSC10210
0,-0.04,0.69,0.02,galectin,DRSC00305
-0.8,0.27,-2.05,0.18,vtd (verthandi),DRSC20839
-0.53,-1.17,0.52,0.13,mei-38 (meiotic 38),DRSC18564
0.74,-0.25,0.05,0.19,CG12608,DRSC19472
0.31,0.77,-0.65,-0.92,CG8668,DRSC03101
0.06,-0.66,-0.69,-0.23,Psn (Presenilin),DRSC11743
